Patent US5049548A (Merck & Co., Inc., priority 1989, dated 1991)

Test: general procedure: solution-phase peptide synthesis; DCC/HOBT (EDC/HOBT in one case)
Details: coupling step

Row | Substance | step yield | step yield (iodide)
1 | N^α -[(pyridin-2-yl)methyl]Phe-His-ACHPA-Ile-NHCH2 (pyridin-4-yl) | 11.7% | 
2 | [N^α -(N-Methylquinuclidin-3(S)-yl)Phe-His(DNP)-ACHPA-Ile-NH-CH2 -(pyridin-4-yl)]^+ I^- |  | 62.0%
3 | N^α -(Quinuclidin-3(S)-yl)Phe-His-Cal[CH(OH)CH2 ]Val-NH-n-butyl | 75% | 
4 | N^α -(Quinuclidin-3-yl)Phe-His-ACHPA-Ile-NHCH2 (pyridin-4-yl) | 87% | 
